# Laboratory results taken from US20130263297A1, “METHODS OF TREATING CANCER” (Cedars-Sinai Medical Center, priority 2010, published 2013).
# At least one compound was matched to its structure with a doubt left.
# Experiments:
# [1] = system: ARCaPE-RANKL cells; experiment: Pathway inhibitor treatment followed by Western blot analysis, ARCaPE-RANKL; format: cell-based, human
# Description: ARCaPE and LNCaP cells were cultured in 6-well plate and at 70% confluency, the cells were serum-starved overnight and then treated with 200 ng/ml of trimerized RANKL in serum-free and phenol-red free RPMI-1640 medium for three days before harvesting the cells. ARCaPE-RANKL and LNCaP-RANKL cells were cultured in 6-well plate and treated with 20 μM of LY294002, a PI3K inhibitor, 20 μM of SB203580, an inhibitor of MAP kinase reactivating kinase, or 2 μM of PS341 (bortezomib), a proteasome inhibitor, at 90% confluency for four hours. Cells were lysed in RIPA buffer containing 1× protease inhibitor cocktail (Thermo Fisher Scientific, Waltham, Mass.) and centrifuged, and the supernatants were collected and quantified using Bradford Protein Assay (Thermo Fisher Scientific, Waltham, Mass.). Cell lysates (20-30 μg) were resolved on a 4-12% Bis-Tris gradient SDS-PAGE (Invitrogen, Carlsbad, Calif.) under reducing conditions, followed by transblotting onto nitrocellulose membrane (BioRad, Hercules, Calif.). The membranes were blocked in 5% non-fat milk in PBST for one hour at room temperature (RT) and incubated with diluted primary antibodies in blocking buffer at 4° C. overnight. The primary antibodies used were RANKL, E-cadherin, vimentin, and OPG (Santa Cruz Biotechnology, Inc., Santa Cruz, Calif.), RANK (Amgen, Thousand Oaks, Calif.), N-cadherin (BD Transduction Laboratories, San Jose, Calif.), phosphor-Akt (Ser 473), Akt, phosphor-p38 (Thr180/Tyr182), p38, phosphor-ERK1/2 (Thr202/Tyr204), ERK, phosphor-SAPK/JNK (Thr183/Tyr185), JNK, phosphor-NF-κB p65 (Ser536), and NF-κB p65 (Cell Signaling Technology, Danvers, Mass.). The membranes were washed with PBST for three times before incubating with peroxidase-conjugated anti-mouse or anti-rabbit secondary antibodies at RT for one hour. After three times washing, the membranes were visualized using ECL Plus reagent (GE Healthcare, Piscataway, N.J.).
# [2] = system: LNCaP-RANKL cells; experiment: Pathway inhibitor treatment followed by Western blot analysis, LNCaP-RANKL; format: cell-based, human; settings: 20 μM, 4 h
# Description: ARCaPE and LNCaP cells were cultured in 6-well plate and at 70% confluency, the cells were serum-starved overnight and then treated with 200 ng/ml of trimerized RANKL in serum-free and phenol-red free RPMI-1640 medium for three days before harvesting the cells. ARCaPE-RANKL and LNCaP-RANKL cells were cultured in 6-well plate and treated with 20 μM of LY294002, a PI3K inhibitor, 20 μM of SB203580, an inhibitor of MAP kinase reactivating kinase, or 2 μM of PS341 (bortezomib), a proteasome inhibitor, at 90% confluency for four hours. Cells were lysed in RIPA buffer containing 1× protease inhibitor cocktail (Thermo Fisher Scientific, Waltham, Mass.) and centrifuged, and the supernatants were collected and quantified using Bradford Protein Assay (Thermo Fisher Scientific, Waltham, Mass.). Cell lysates (20-30 μg) were resolved on a 4-12% Bis-Tris gradient SDS-PAGE (Invitrogen, Carlsbad, Calif.) under reducing conditions, followed by transblotting onto nitrocellulose membrane (BioRad, Hercules, Calif.). The membranes were blocked in 5% non-fat milk in PBST for one hour at room temperature (RT) and incubated with diluted primary antibodies in blocking buffer at 4° C. overnight. […]
# [3] = system: castration-resistant prostate cancer (CRPC) with bone metastasis; prostate or breast cancers; settings: patients with bone metastasis; cited from earlier work
# [4] = 20 μM LY294002 or 2 μM PS341, 4 h
SMILES,"E-cadherin expression in ARCaPE-RANKL cells [1, 4]","vimentin and RANKL expression in ARCaPE-RANKL cells [1, 4]","phosphorylated level of P38 in ARCaPE-RANKL cells ([1]; 20 μM, 4 h)",phosphorylated level of P38 in LNCaP-RANKL cells [2],progression of castration-resistant prostate cancer (CRPC) [3]
O=c1cc(N2CCOCC2)oc2c(-c3ccccc3)cccc12 [LY294002],increased,decreased,reduced,reduced,
"COc1cc2nccc(Oc3ccc(NC(=O)C4(C(=O)Nc5ccc(F)cc5)CC4)cc3)c2cc1OC [XL-184, cabozantinib]",,,,,delay or prevent
